Assay results from article PMC5364535.
These are yes or no findings as the source states them, for the method shown. Some binding calls cover weakened binding; strength is not graded here.

Legend:
CheY (E. coli) = CheY (E. coli) (UniProt P0AE67); assay: Protein-interactome Footprinting (PiF); in E. coli JM109 cells co-transformed with X-pPIDATR1 and Y-pPIDKTR2, 10 uM IPTG, M9 His DO medium, 37 °C; formaldehyde cross-linking, DNase I digestion, three BR sequences read at once by beacon-assisted detection (MBAD signal); intensity = MBAD signal/Iref of GFP, threshold 1
CheZ (E. coli) = target: T1, CheZ (E. coli) (UniProt P0A9H9); assay: as above
T1 sequence: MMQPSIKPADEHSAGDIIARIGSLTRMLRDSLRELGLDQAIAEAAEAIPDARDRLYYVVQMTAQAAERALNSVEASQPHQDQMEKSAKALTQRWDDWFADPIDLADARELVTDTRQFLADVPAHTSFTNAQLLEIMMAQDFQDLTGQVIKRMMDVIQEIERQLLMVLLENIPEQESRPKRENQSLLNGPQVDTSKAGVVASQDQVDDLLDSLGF

EnvZ (E. coli), P0AEJ4 = target: T2, EnvZ (E. coli), P0AEJ4; assay: Protein-interactome Footprinting (PiF); in E. coli cells; EnvZ and OmpR fusions in one cell; high osmolality M9 media (100 mM NaCl) or low osmolality M9 media (8.5 mM NaCl), changed in blocks of 40 min; conditions: remark: other sources report otherwise
T2 chain: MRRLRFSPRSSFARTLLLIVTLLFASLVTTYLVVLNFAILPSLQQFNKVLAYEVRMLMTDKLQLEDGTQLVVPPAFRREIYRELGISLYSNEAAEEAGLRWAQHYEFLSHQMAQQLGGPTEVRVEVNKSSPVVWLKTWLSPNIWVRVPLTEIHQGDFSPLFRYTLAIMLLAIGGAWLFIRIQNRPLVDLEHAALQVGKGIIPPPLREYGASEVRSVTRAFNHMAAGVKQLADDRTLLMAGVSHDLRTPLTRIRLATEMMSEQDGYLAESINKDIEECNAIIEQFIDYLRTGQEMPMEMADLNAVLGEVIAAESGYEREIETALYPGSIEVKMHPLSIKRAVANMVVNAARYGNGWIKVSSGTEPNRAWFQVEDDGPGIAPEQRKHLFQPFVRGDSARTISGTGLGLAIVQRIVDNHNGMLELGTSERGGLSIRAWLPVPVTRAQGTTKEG

OmpR (E. coli) = target: T3, OmpR (E. coli) (UniProt P0AA16); assay: as above
T3 sequence: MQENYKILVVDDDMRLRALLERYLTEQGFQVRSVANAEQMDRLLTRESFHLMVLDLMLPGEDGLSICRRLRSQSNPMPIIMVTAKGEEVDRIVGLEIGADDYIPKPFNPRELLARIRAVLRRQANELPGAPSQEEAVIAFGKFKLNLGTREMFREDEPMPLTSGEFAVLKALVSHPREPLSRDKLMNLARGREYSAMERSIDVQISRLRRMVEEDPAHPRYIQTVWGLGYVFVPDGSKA

CheA (E. coli) = CheA (E. coli) (UniProt P07363); assay: Protein-interactome Footprinting (PiF); in E. coli JM109 cells co-transformed with X-pPIDATR1 and Y-pPIDKTR2, 10 uM IPTG, M9 His DO medium, 37 °C; formaldehyde cross-linking, DNase I digestion, three BR sequences read at once by beacon-assisted detection (MBAD signal); intensity = MBAD signal/Iref of GFP, threshold 1
CheB (E. coli) [1] = target: T4, CheB (E. coli) (UniProt P07330); assay: as above
T4 sequence: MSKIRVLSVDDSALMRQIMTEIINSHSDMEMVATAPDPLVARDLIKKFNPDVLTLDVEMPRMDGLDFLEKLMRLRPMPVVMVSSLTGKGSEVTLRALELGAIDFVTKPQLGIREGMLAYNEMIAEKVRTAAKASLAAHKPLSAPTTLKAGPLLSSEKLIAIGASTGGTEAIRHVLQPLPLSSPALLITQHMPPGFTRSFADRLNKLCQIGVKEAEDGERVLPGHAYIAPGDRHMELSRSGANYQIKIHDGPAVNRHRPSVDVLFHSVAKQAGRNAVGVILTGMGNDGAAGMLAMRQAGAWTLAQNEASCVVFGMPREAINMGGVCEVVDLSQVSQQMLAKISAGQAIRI

CheB (E. coli) [2] = target: T4, CheB (E. coli); assay: PdF assay; in E. coli cells; target proteins fused to CI(N,wt) or CI(N,mut); dimerisation protects a core DNA sequence from DNase I; copy number read by qPCR (also by BAD with Beacon-I, Fig. 4A); normalized PdF signal

B1: CheY (protein, UniProt P0AE67 1-129)
chain: MADKELKFLVVDDFSTMRRIVRNLLKELGFNNVEEAEDGVDALNKLQAGGYGFVISDWNMPNMDGLELLKTIRADGAMSALPVLMVTAEAKKENIIAAAQAGASGYVVKPFTAATLEEKLNKIFEKLGM
In the case of B1, the binding (CheY (E. coli)) is reported as “binds” and the binding (CheZ (E. coli)) is reported as “binds”.

B2: EnvZ, P0AEJ4 1-450 (protein)
chain: T2 chain
With B2 the binding (EnvZ (E. coli), P0AEJ4) was “binds”.

B3: OmpR (protein, UniProt P0AA16 1-239)
chain: T3 sequence
B3 was tested, and the binding (OmpR (E. coli)) was “binds”.

B4: CheA (protein, UniProt P07363 1-654)
chain: MSMDISDFYQTFFDEADELLADMEQHLLVLQPEAPDAEQLNAIFRAAHSIKGGAGTFGFSVLQETTHLMENLLDEARRGEMQLNTDIINLFLETKDIMQEQLDAYKQSQEPDAASFDYICQALRQLALEAKGETPSAVTRLSVVAKSEPQDEQSRSQSPRRIILSRLKAGEVDLLEEELGHLTTLTDVVKGADSLSAILPGDIAEDDITAVLCFVIEADQITFETVEVSPKISTPPVLKLAAEQAPTGRVEREKTTRSNESTSIRVAVEKVDQLINLVGELVITQSMLAQRSSELDPVNHGDLITSMGQLQRNARDLQESVMSIRMMPMEYVFSRYPRLVRDLAGKLGKQVELTLVGSSTELDKSLIERIIDPLTHLVRNSLDHGIELPEKRLAAGKNSVGNLILSAEHQGGNICIEVTDDGAGLNRERILAKAASQGLTVSENMSDDEVAMLIFAPGFSTAEQVTDVSGRGVGMDVVKRNIQKMGGHVEIQSKQGTGTTIRILLPLTLAILDGMSVRVADEVFILPLNAVMESLQPREADLHPLAGGERVLEVRGEYLPIVELWKVFNVAGAKTEATQGIVVILQSGGRRYALLVDQLIGQHQVVVKNLESNYRKVPGISAATILGDGSVALIVDVSALQAINREQRMANTAA
B4 was tested, and the binding (CheZ (E. coli)) was “binds”, the binding (CheA (E. coli)) was “binds” and the binding (CheB (E. coli) [1]) was “binds”.

B5: CheZ (protein, UniProt P0A9H9 1-214)
chain: T1 sequence
B5 was tested, and the binding (CheZ (E. coli)) was “binds”.

B6: CheB (protein, UniProt P07330 1-349)
chain: T4 sequence
In the case of B6, the binding (CheB (E. coli) [2]) is reported as “no binding”.
